# Reference: PMC7819943, “Rice protein-binding microarrays: a tool to detect cis-acting elements near promoter regions in rice”
# The chains behind the UniProt entries cited, without tags or fusion partners.
# UniProt Q0JBA9, entry or part of it: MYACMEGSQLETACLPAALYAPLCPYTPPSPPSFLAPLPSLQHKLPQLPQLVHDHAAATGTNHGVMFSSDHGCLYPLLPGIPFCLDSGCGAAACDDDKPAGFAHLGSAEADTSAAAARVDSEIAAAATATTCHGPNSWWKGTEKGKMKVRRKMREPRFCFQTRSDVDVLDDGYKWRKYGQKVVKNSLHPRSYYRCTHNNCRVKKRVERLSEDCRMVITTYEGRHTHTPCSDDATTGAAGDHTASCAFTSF
# Some of the results follow.
# Target: OsWRKY34 (Oryza sativa, UniProt Q0JBA9 1-250)
# Assay: protein-binding microarray (RPBM); PBS, 2% BSA, 51.3 ng/ul salmon testes DNA, 50 uM zinc acetate, 200 nM TF, 25 C, 1 h; high values mean tight binding
# Conditions: protein: recombinant; tags: N-terminal polyhistidine and DsRed monomer fusion (pET32a); label: CyDye5-dUTP incorporated in the synthesized complementary strand; 3' TTTTT single-stranded linker to array surface; dsDNA, one strand shown
# How it was run: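 In PBS with 2% BSA, salmon testes DNA and 50 µM zinc acetate, 200 nM protein was incubated on a custom Agilent array at 25 °C for 1 h and then washed off. The array had been made double-stranded by primer extension with Cy5-dUTP and blocked with 2% BSA. The proteins were transcription factors fused N-terminally to polyhistidine and DsRed, expressed in E. coli BL21-CodonPlus and purified on Ni–NTA. The binding signal is per-feature fluorescence intensity (arbitrary units) from an Axon 4000B scanner.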
row,Sequence,binding signal
1,GTCCACCTCCACCATCCATCCCCTACACTGTCGCGAGCGCCGGAGTCACCTAGTGCAG,10100 fluorescence intensity (a.u.)
2,CATTGGCTGCTTGATATCGCCTTATATGCGCTCATAATTTCGGAGTCACCTAGTGCAG,11100 fluorescence intensity (a.u.)
3,TCTCACCGCAGCCTGAGGAATCCATTTTGTCGGTTCTTCTCGGAGTCACCTAGTGCAG,10300 fluorescence intensity (a.u.)
4,GCGTGTGACGACCGCCCATGCCGCCGCCGTTCCTCCTTTCCGGAGTCACCTAGTGCAG,8490 fluorescence intensity (a.u.)
5,TTGGTCATTCTGTTTTACCGCACAGGCATTCATTAGACCTCGGAGTCACCTAGTGCAG,8140 fluorescence intensity (a.u.)
6,AACCACCCAACCCAGCCCAACAATCCCAATCTCTCTCTCTCGGAGTCACCTAGTGCAG,9520 fluorescence intensity (a.u.)
7,TGAATAGTACTTTACTCGTGACTTATGTTTTTATTTTTTTCGGAGTCACCTAGTGCAG,9810 fluorescence intensity (a.u.)
8,GACGTGACACTGGAGGAATGGAGGGGTTTTTTTTTTTCTTCGGAGTCACCTAGTGCAG,10700 fluorescence intensity (a.u.)
9,ATTCTGCTCCGATCTAATCTTCATCTTCGATACTGATATTCGGAGTCACCTAGTGCAG,9470 fluorescence intensity (a.u.)
10,TGCTCGTACACCACACCTCCACACCTACACGCGCGCGCGCCGGAGTCACCTAGTGCAG,9540 fluorescence intensity (a.u.)
11,CACCCATCACCTATATATACACATACTTCCCATCGTCTCCCGGAGTCACCTAGTGCAG,8220 fluorescence intensity (a.u.)
12,CACCTTGTCCCAGTTTGTTATCATTTGAGAAGTTATTTGTCGGAGTCACCTAGTGCAG,10500 fluorescence intensity (a.u.)
13,CCCTTTTGTCTACCTCCTGCTCGTTTCCACCCCTTTCCTTCGGAGTCACCTAGTGCAG,12800 fluorescence intensity (a.u.)
14,CGGTTATAGTTCCAGCCATACTGAGGTCTGCTACATGATCCGGAGTCACCTAGTGCAG,8380 fluorescence intensity (a.u.)
15,CGGCTAGGTTTCATCGCATCCCGCGATCTGTTTCGTCCAGCGGAGTCACCTAGTGCAG,9030 fluorescence intensity (a.u.)
16,ATGATCTTCCGTTGTATTCATGTTGAAATTATGGTCTTGTCGGAGTCACCTAGTGCAG,8720 fluorescence intensity (a.u.)
17,GTTGCGCCCGTCTTTGTCTCGTTTGTCTCGAATACTCTCCCGGAGTCACCTAGTGCAG,9790 fluorescence intensity (a.u.)
18,TCACTCTTCAGTCTTCACCTCGCGGAGGCGCAGTATTCCCCGGAGTCACCTAGTGCAG,8070 fluorescence intensity (a.u.)
19,AAATACCCGCCCCATCTTCACCCGCAGCTATATAATATCACGGAGTCACCTAGTGCAG,9300 fluorescence intensity (a.u.)
20,TCTCTTTCGCGCCCTTTATATGCCGCTCTCCCGCGCGCCCCGGAGTCACCTAGTGCAG,12300 fluorescence intensity (a.u.)
21,ACGCTAGCACGTCATTACTGTTTCTCACCGATCACAAGGGCGGAGTCACCTAGTGCAG,8060 fluorescence intensity (a.u.)

# Reprinted at random: 3 records from the list.
row,Sequence,binding signal
10,TGCTCGTACACCACACCTCCACACCTACACGCGCGCGCGCCGGAGTCACCTAGTGCAG,9540 fluorescence intensity (a.u.)
3,TCTCACCGCAGCCTGAGGAATCCATTTTGTCGGTTCTTCTCGGAGTCACCTAGTGCAG,10300 fluorescence intensity (a.u.)
8,GACGTGACACTGGAGGAATGGAGGGGTTTTTTTTTTTCTTCGGAGTCACCTAGTGCAG,10700 fluorescence intensity (a.u.)

# Continuation.

row,Sequence,binding signal
1,GGTGCTTTGGTTGGGCCCATTTGGAACAGCGCATCTTTGACGGAGTCACCTAGTGCAG,8240 fluorescence intensity (a.u.)
2,TGTGGGTGTGCGTGTGTGCGTTCATAGGGGTGTGTGTGCGCGGAGTCACCTAGTGCAG,9150 fluorescence intensity (a.u.)
3,TAGGTTATGTTCTTTACTCTGTGTTCCCAACTTCACACCCCGGAGTCACCTAGTGCAG,8580 fluorescence intensity (a.u.)
4,CTGGTTGCAACCCCGCTTTGTTGATTCGTTCTTTGGCGGCCGGAGTCACCTAGTGCAG,10300 fluorescence intensity (a.u.)
5,ACTTTTTACCTATGGTGCATGTTTCTTTTTAACCCAACCACGGAGTCACCTAGTGCAG,10100 fluorescence intensity (a.u.)
6,TTATTTTTCATTTGTAAATACTACCGTTTCGCTTTTTCCTCGGAGTCACCTAGTGCAG,8270 fluorescence intensity (a.u.)
7,GATCTGGACTCTAGCCGATTCCTGCTCTGTTTCCGAACTCCGGAGTCACCTAGTGCAG,9920 fluorescence intensity (a.u.)
8,TGACGTCCACATGTCGCCACCACCGGCCAAACACCGCGCGCGGAGTCACCTAGTGCAG,10400 fluorescence intensity (a.u.)
9,CCTTCGCCGCCTCCGCATCCTTCTCCGGCGGCTGATCCAGCGGAGTCACCTAGTGCAG,8480 fluorescence intensity (a.u.)
10,TTTGTATTGTTCGACTTGTTTCTTATTAAAATTACAAGTTCGGAGTCACCTAGTGCAG,8140 fluorescence intensity (a.u.)
11,TCTCTCTCTCTCTCTTACTCGTTTTGGTGGGCCGGTCGGCCGGAGTCACCTAGTGCAG,8920 fluorescence intensity (a.u.)
12,CCAGCTTGGCATCGTTGACCGGGCCATCCCAACCCAATCCCGGAGTCACCTAGTGCAG,12900 fluorescence intensity (a.u.)
13,CCGGAGTCCTCTTGTTCTTCTTCTTCGTTGCTGCTGGTTTCGGAGTCACCTAGTGCAG,9860 fluorescence intensity (a.u.)
14,GATGTTTTGGCCATGCATTTCTTTTGGCCAAGGATGCGAACGGAGTCACCTAGTGCAG,8180 fluorescence intensity (a.u.)
15,ATCTATCACCATCTCTCCTTGATCTTGTGCACCTTACAAACGGAGTCACCTAGTGCAG,16800 fluorescence intensity (a.u.)
16,GCTTTCTGTCGACCCATCAATATGTACTATGTGTGTTTTACGGAGTCACCTAGTGCAG,13600 fluorescence intensity (a.u.)
17,GGGATGGGTAGGGAGAGAAGGAGGAAGAAGCACATAGATGCGGAGTCACCTAGTGCAG,8670 fluorescence intensity (a.u.)
18,AAAAGCAGTTTCTTCTCTCTTTTTTTCCTATTTTCCTTGACGGAGTCACCTAGTGCAG,8910 fluorescence intensity (a.u.)
19,CTCCTCTCCTCACCGTCACTCACCACCCGCCACACGTAACCGGAGTCACCTAGTGCAG,10100 fluorescence intensity (a.u.)
20,CTTACACTCACTCGTGTGCACCCACCCGGGAAGAATTTCTCGGAGTCACCTAGTGCAG,11500 fluorescence intensity (a.u.)
21,CTCCCTTTTCTCGAGCGCCGGCGGCGCACGTGCTTTCTTCCGGAGTCACCTAGTGCAG,8240 fluorescence intensity (a.u.)

row,Sequence,binding signal
1,CCGCTGTCGCCGCACCATCATACTGTCGTCGCCATCCTCCCGGAGTCACCTAGTGCAG,8900 fluorescence intensity (a.u.)
2,TCCATTCAGGTAATCCTCAATTCCTTTTGCTTGCTGCCTTCGGAGTCACCTAGTGCAG,9270 fluorescence intensity (a.u.)
3,CCCGGCGGCCCGATCACCACCTGCCCGAACACCATCCTCCCGGAGTCACCTAGTGCAG,8530 fluorescence intensity (a.u.)
4,GCTGCCAACGTGGGTCCTATACTTCCTTCATCGCCGGAGGCGGAGTCACCTAGTGCAG,8150 fluorescence intensity (a.u.)
5,CTTATCAGCCCCTATCTATTTACATGTCAGCCCTTGCATTCGGAGTCACCTAGTGCAG,8160 fluorescence intensity (a.u.)
6,GCGCGGTTATCTCCTGCTTCAGGTTCCAGTCGAACATGTGCGGAGTCACCTAGTGCAG,8400 fluorescence intensity (a.u.)
7,TGTGGTGGCAAGTTTTAATATGGTCTTTTGAGGAGTTTCTCGGAGTCACCTAGTGCAG,9240 fluorescence intensity (a.u.)
8,GAACCCGCAGCCGCCTCCGCGCACCCCGCCGCCGTGGCCACGGAGTCACCTAGTGCAG,10600 fluorescence intensity (a.u.)
9,ATATATCACATCTTTCAACTTACAAAACCGTTCACTTTACCGGAGTCACCTAGTGCAG,8480 fluorescence intensity (a.u.)
10,AGTATATTAGGGTGTGTTTGGTTCCACGTCAAAATTAGAACGGAGTCACCTAGTGCAG,8760 fluorescence intensity (a.u.)
11,GTATCCCATTTTTTCTCCCATATTCCTCCCGCGAGCCTCGCGGAGTCACCTAGTGCAG,9130 fluorescence intensity (a.u.)
12,CCGGTTGCCGAGCTCTCCTTCTCTCTCGCCGGTCGCCGCGCGGAGTCACCTAGTGCAG,10900 fluorescence intensity (a.u.)
13,GTCCCATTTTCACTGTTTTTACTTACGTGCCAGGTGTCTGCGGAGTCACCTAGTGCAG,8620 fluorescence intensity (a.u.)
14,TGACATTTTGCTTGCACTGTTTGACCATTCATCTTATTCACGGAGTCACCTAGTGCAG,9820 fluorescence intensity (a.u.)
15,GTTCTCTATGCACGTTTTTTTTTCTTTTTTTCTGTTTTAACGGAGTCACCTAGTGCAG,10500 fluorescence intensity (a.u.)
16,TTCTGGTGGTGGGGAGATGGGTGCAAAAGGATGGGGAAGACGGAGTCACCTAGTGCAG,15100 fluorescence intensity (a.u.)
17,TAATTTTCACATACGGCTCTTTCGAGAAATCATCCATCAACGGAGTCACCTAGTGCAG,8600 fluorescence intensity (a.u.)
18,CCTCCTCCTCCATGGTGTGTCGCCGATCTGTGGGGTGGGACGGAGTCACCTAGTGCAG,8530 fluorescence intensity (a.u.)
19,TTTGACTTTCTAGCTGGCTAGGCTACGACTTCCCTTCATCCGGAGTCACCTAGTGCAG,9550 fluorescence intensity (a.u.)
20,GGTGGGCCGAGGTACACACGTGGGGATGGTTGTGGAAAAACGGAGTCACCTAGTGCAG,8550 fluorescence intensity (a.u.)
21,TTTGTTTCAGTTCGTTTCTTTTGTCGTTCTCACAAAAATGCGGAGTCACCTAGTGCAG,8600 fluorescence intensity (a.u.)

row,Sequence,binding signal
1,TCTCTTCTCTTTCTCTCCTCTCTTTTTGCCGCCGCTCGAGCGGAGTCACCTAGTGCAG,8900 fluorescence intensity (a.u.)
2,AAGTTAAGCAGATCTTCCAGGCCAGTGTGTGTTTTTCGCACGGAGTCACCTAGTGCAG,9700 fluorescence intensity (a.u.)
3,CTTGACGCGTGCCCATTCTCCAACCCATGTCCGGCTAGGACGGAGTCACCTAGTGCAG,8600 fluorescence intensity (a.u.)
4,GAATGGGTTATCTCAGTTAATTCCAACCTATCCTTTGGGTCGGAGTCACCTAGTGCAG,9490 fluorescence intensity (a.u.)
5,CCATTCCTCAGTTAGTTCCAATGCATGCAGTTCCTGTCCTCGGAGTCACCTAGTGCAG,9000 fluorescence intensity (a.u.)
6,ATTACCGCATGATTAATTAAATATTTACTATTTTTTTTCACGGAGTCACCTAGTGCAG,9980 fluorescence intensity (a.u.)
7,TTTACCACGTTTCATTCCTTTTGTGATGTTACCACACTAGCGGAGTCACCTAGTGCAG,8130 fluorescence intensity (a.u.)
8,ACACATCAATGTCGTTACCAGGTCACCATGTGCATCTACACGGAGTCACCTAGTGCAG,9860 fluorescence intensity (a.u.)
9,ACATATTTGCCCCTTCACTTTGACCATGAAACGCGCAAAACGGAGTCACCTAGTGCAG,8040 fluorescence intensity (a.u.)
10,GCGTTATTTCCTGTGCATAAATTTAGTTTACTTAGTTAGACGGAGTCACCTAGTGCAG,8040 fluorescence intensity (a.u.)
11,ATTTGTTTTGGACCTCTAATTGTTTCTTGAATTCTCTTCTCGGAGTCACCTAGTGCAG,10300 fluorescence intensity (a.u.)
12,TACAGTAGTAGTACCATGGTTTAATTATTTGTAGCCTTATCGGAGTCACCTAGTGCAG,8900 fluorescence intensity (a.u.)
13,CGAACCCGTCCGTCGTCCGCCACGGCGCCACCACGCCGCCCGGAGTCACCTAGTGCAG,9130 fluorescence intensity (a.u.)
14,TCTAAATAGTATTTAGCACACTCATCTTCTAGGATTTGTCCGGAGTCACCTAGTGCAG,8290 fluorescence intensity (a.u.)
15,TTCATCATTCTCTTTCTTTCTTATGTTAACCTCGTACTACCGGAGTCACCTAGTGCAG,8940 fluorescence intensity (a.u.)
16,CGCTAATCCACCTATTTTTATTCTTCTCTCCCACCCCAAACGGAGTCACCTAGTGCAG,8240 fluorescence intensity (a.u.)
17,CTTCTCCTGCATGGCAAGTCGCTGATCACAACTACGCATCCGGAGTCACCTAGTGCAG,8250 fluorescence intensity (a.u.)
18,GAGTCCGAATGTGGGCGGGAGATGTGGGCGTTGAGATATGCGGAGTCACCTAGTGCAG,8110 fluorescence intensity (a.u.)
19,TCCCACGCAGCCACACTAGCTCCACTCAACTTGCGCTTCCCGGAGTCACCTAGTGCAG,9710 fluorescence intensity (a.u.)
20,GCCGTCGCCGCCGCCTTCGACCACTACACCGGCTACCCCGCGGAGTCACCTAGTGCAG,10200 fluorescence intensity (a.u.)
21,CGATCCGTCCGTCCATGGAGTCCCGCTTTGACCCGCCTCCCGGAGTCACCTAGTGCAG,9040 fluorescence intensity (a.u.)
